# Screening data

Data taken from PubChem BioAssay AID912, deposited by NCATS (2007).

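Uptake of anthrax lethal toxin into cultured cells, read by FRET (460/530 nm ratio) and reported from the 460 nm channel; the cell line is not named here. Each compound was tested as a concentration series from about 0.0005 to 40 µM. The number is the fitted AC50 of the 460 nm signal alone; lower values mean a more potent effect. A falling signal goes with compounds filed as inhibitors or cytotoxic, a rising one with activators or fluorescent compounds (inferred from the filed classes).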

Values are in µM. Common to all entries: measured here: 460 nm channel. Part of the compounds only, not a random draw; the main read-out is not listed here. Potencies fitted to partial, single-point or poorly fitting curves are rough. The first word of each remark tells which way the curve ran; it can be opposite to the aim of the assay.

{"compound": "COc1cc(NC(=O)c2ccc(Br)o2)ccc1NC(=O)c1ccccc1Cl", "AC50 (µM)": "15.85", "curve": "falling, partial curve"}
{"compound": "Cc1ccc(-c2nc(CS(=O)CC(=O)NCc3ccc(Cl)cc3)c(C)o2)cc1", "stereo": "centres undefined", "AC50 (µM)": "10", "curve": "falling, partial curve, poor fit"}
{"compound": "Cn1c(=O)oc2cc(S(=O)(=O)N3CCCC(C(=O)N4CC=C(c5ccccc5)CC4)C3)ccc21", "stereo": "centres undefined", "AC50 (µM)": "12.59", "curve": "falling, partial curve"}
{"compound": "CCc1cccc(NC(=O)c2ccc(Br)o2)c1", "AC50 (µM)": "10", "curve": "falling, single point"}
{"compound": "Cc1ccccc1N", "AC50 (µM)": "31.62", "curve": "falling, partial curve, poor fit"}
{"compound": "COc1ccc(N2Cc3ccccc3C2)cc1Cl", "AC50 (µM)": "15.85", "curve": "falling, single point"}
{"compound": "CCCCn1c(SCC(=O)Nc2cc(C)on2)nnc1-c1cccnc1", "AC50 (µM)": "1.259", "curve": "falling, single point"}
{"compound": "Oc1ccc(Cl)c(Cl)c1Cl", "AC50 (µM)": "15.85", "curve": "falling, partial curve, poor fit"}
{"compound": "COc1cc2c(C)nc3onc(-c4ccccc4)c3c2cc1OC", "AC50 (µM)": "0.5012", "curve": "falling, full curve"}
{"compound": "C/C=C/c1ccc(O)c(OC)c1", "AC50 (µM)": "31.62", "curve": "falling, single point"}
{"compound": "CCOC(=O)c1nnc2ccnn2c1N", "AC50 (µM)": "5.012", "curve": "rising, partial curve"}
{"compound": "O=c1c(CCc2ccccc2)nc2cncnc2n1-c1ccccc1", "AC50 (µM)": "25.12", "curve": "rising, single point"}
{"compound": "CCOC(=O)c1c(C)[nH]c2ccc3c(c12)CN1CCc2cc(OC)ccc2[C@@H]1O3", "AC50 (µM)": "1.585", "curve": "falling, full curve"}
{"compound": "CCNc1ncc2nc(CCc3ccccc3)c(=O)n(-c3ccc(OC)cc3)c2n1", "AC50 (µM)": "1.995", "curve": "rising, full curve, poor fit"}
{"compound": "COc1ccc([C@@H]2Sc3ccccc3N(CCN(C)C)C(=O)[C@@H]2OC(C)=O)cc1", "AC50 (µM)": "12.59", "curve": "falling, partial curve"}
{"compound": "CCN(CC)CCO[C@H]1CC[C@@]2(C)C(=CC[C@@H]3[C@H]2CC[C@]2(C)C(=O)CC[C@H]32)C1", "AC50 (µM)": "25.12", "curve": "falling, partial curve"}
{"compound": "Cc1ccc(C(=O)Nc2nc(COc3ccccc3)cs2)s1", "AC50 (µM)": "3.981", "curve": "rising, partial curve"}
{"compound": "Cc1sc2nc(SCC(=O)N(CCO)CCO)n(C3CCCCC3)c(=O)c2c1C", "AC50 (µM)": "3.162", "curve": "rising, single point"}
{"compound": "O=P(/C(=N/O)N1CCCCC1)(N1CCOCC1)N1CCOCC1", "AC50 (µM)": "1.995", "curve": "rising, full curve, poor fit"}
{"compound": "O=C(CN1CCOc2ccccc21)NC1CCN(Cc2ccccc2)CC1", "AC50 (µM)": "12.59", "curve": "falling, partial curve"}
{"compound": "Cc1cccn2c(=O)c3cc(C(=O)N4CCC5(CC4)OCCO5)n(C)c3nc12", "AC50 (µM)": "25.12", "curve": "rising, single point"}
{"compound": "CCc1cccc(NC(=O)Cn2cc3c(n2)CCCC3)c1", "AC50 (µM)": "19.95", "curve": "falling, single point"}
{"compound": "CCN(CC)S(=O)(=O)c1ccc2oc(C(=O)NCC3COc4ccccc4O3)c(C)c2c1", "stereo": "centres undefined", "AC50 (µM)": "3.162", "curve": "falling, single point"}
{"compound": "O=C(O)c1c(Br)c(Br)c(Br)c(Br)c1C1c2ccc(O)cc2Oc2cc(O)ccc21", "AC50 (µM)": "3.162", "curve": "falling, single point"}
{"compound": "CCOC(=O)C1CCCN(C(=O)c2ccc3c(=O)n(CCOC)c(=S)[nH]c3c2)C1", "stereo": "centres undefined", "AC50 (µM)": "31.62", "curve": "rising, single point"}
{"compound": "Cc1cc(OC(=O)N2CCCCC2)cc(C)c1Cl", "AC50 (µM)": "12.59", "curve": "falling, partial curve"}
{"compound": "Nc1scc(-c2ccncc2)c1Cl", "AC50 (µM)": "19.95", "curve": "falling, partial curve, poor fit"}
{"compound": "O=C(O)c1cccc(COc2ccccc2Cl)c1", "AC50 (µM)": "3.981", "curve": "rising, single point"}
{"compound": "COc1cccc(NC(=O)N(Cc2cc3cc(C)cc(C)c3[nH]c2=O)CC2COCCO2)c1", "stereo": "centres undefined", "AC50 (µM)": "25.12", "curve": "rising, single point"}
{"compound": "O=C(Nc1ccc2oc(-c3ccccc3F)nc2c1)c1ccc2c(c1)OCCO2", "AC50 (µM)": "10", "curve": "falling, partial curve"}
{"compound": "Cc1cccn2c(=O)c3cc(C(=O)NCc4ccco4)c(=N)n(C(C)C)c3nc12", "AC50 (µM)": "12.59", "curve": "rising, partial curve, poor fit"}
{"compound": "O=C(c1csnn1)N1CCC[C@@]2(CCN(Cc3ccccc3)C2)C1", "AC50 (µM)": "12.59", "curve": "rising, single point"}
{"compound": "c1ccc2c(c1)[nH]c1c(N3CCCC3)ncnc12", "AC50 (µM)": "3.162", "curve": "falling, partial curve"}
{"compound": "CC(C)c1nnc(NC(=O)CCC(=O)Nc2ccc(F)cc2)s1", "AC50 (µM)": "3.162", "curve": "falling, partial curve, poor fit"}
{"compound": "Clc1ccc(-n2cnnn2)cc1", "AC50 (µM)": "19.95", "curve": "falling, single point"}
{"compound": "COC(=O)[C@@]1(Cc2ccc(F)cc2)[C@H]2c3cc(C(=O)N(C)C)n(CCF)c3C[C@H]2CN1C(=O)c1ccccc1", "AC50 (µM)": "5.012", "curve": "rising, full curve, poor fit"}
{"compound": "COc1cc(OC)cc(-n2nc(C(=O)NCCCN3CCOCC3)c3ccccc3c2=O)c1", "AC50 (µM)": "5.012", "curve": "rising, single point"}